# Test results reported in patent USRE42211.
# Chains of the proteins cited; added tags and fusions are not shown. Residues count along the entry.
# UniProt P03001, 25-123: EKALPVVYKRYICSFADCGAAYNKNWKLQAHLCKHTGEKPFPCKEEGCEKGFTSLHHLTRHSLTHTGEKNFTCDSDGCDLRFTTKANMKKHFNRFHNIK
# Experiments:
# [1] = target: TFIIIA first three fingers (UniProt P03001); assay: pull-down; conditions: phage returned versus free beads or non-specific DNA (range given for TFIIIA and Zif268 phage); protein details: fd phage pIII fusion; label: 5'-biotin
# [2] = tested on: T1, three-finger peptide 1B-2A-3B (synthetic); assay: binding assay; conditions: protein details: fd phage pIII fusion, label: 5'-biotin, variant of p190 BCR-ABL cDNA fusion site oligo
# T1 sequence: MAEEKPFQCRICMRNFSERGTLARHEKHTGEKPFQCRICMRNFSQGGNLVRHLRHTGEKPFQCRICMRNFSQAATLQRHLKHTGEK
sequence,measurement,setting,value
TATGACTTGGATGGGAGACCGCCTGG / AATTCCAGGCGGTCTCCCATCCAAGTCA [TFIIIA site oligo],binding result,[1],binds
GAGACGCAGGTGAGTTCC (double strand) [genomic BCR exon 1/intron 1 junction oligo],binding result,[2]; discriminates against genomic BCR,binds more weakly
CCCCTTTCTCTTCCAGAAGCCCTTCAGCGGCCA (double strand) [genomic c-ABL intron 1/exon 2 junction oligo],binding result,[2]; discriminates against c-ABL,binds more weakly

# For at least one entry, the source does not settle the construct or the ends of the probe. For part of these data: Weaker means in comparison with the reference protein, sequence or condition of that experiment. For part of these data: Where a protein sequence is shown, tags need not be part of it.
